Hit rate of the full screen: of about 330,000 compounds, about 7,700 (2.3%) were called active. Inconclusive results, whose numbers are uncertain, are shown with a selection of clear calls. Calls come from the whole dose curve; as a rule, active = well fitted inhibition curve with a large enough effect; inconclusive = small, poorly fitted or top-dose-only effect, or effect the other way; inactive = flat fitted curve, though single readings scatter. A potency beside an inconclusive call is a rough fit, not a confirmed value.
assay: qHTS screen for small molecules that inhibit ELG1-dependent DNA repair in human embryonic kidney (HEK293T) cells expressing luciferase-tagged ELG1; details: HEK293T ELG1-luciferase reporter, luminescence, 16 h, DNA damage induced by 5-fluorouridine; series mostly up to 46.1 µM; note: nearly all actives have a fitted effect of over 55% in size
In short: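 5-Fluorouridine DNA damage + compound/DMSO, 2,000 cells/well, 16 h, 37 °C/5% CO2. ONE-Glo, 30 min RT, luminescence. Readout = decrease in reporter signal.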
Potency is the fitted concentration of half-maximal effect.

Compound | Potency
COc1cc2c(cc1OC)CN(C(=S)NC(=O)c1ccccc1)CC2 | inconclusive: 0.517 µM [inhibitor, full curve]
CCOC(=O)[C@H]1[C@H]2COc3ccc(Br)cc3[C@@H]2N2C(=O)CN(Cc3ccccc3)C(=O)[C@@]12C | inactive
CC(C)(C)OC(=O)C[C@H]1C/C=C\C[C@H](CC(=O)N(CCO)Cc2ccccc2)C(=O)N[C@@H](c2ccccc2)COC1=O | active: 8.2 µM
CC(C)(C)NC(=O)c1ccc2c(c1)C(=O)N(Cc1ccco1)C2=O | inconclusive: 35.5 µM [inhibitor, single point]
Cc1ccc(C(=O)O/N=C/c2c(C(F)(F)F)nn(C)c2Sc2ccc(Cl)cc2)cc1 | inconclusive: 18.4 µM [inhibitor, single point]
O=C(O)C(Cc1c[nH]c2ccccc12)NS(=O)(=O)c1ccc(Cl)cc1 (stereo not drawn) | inconclusive: 13 µM [inhibitor, partial curve, poor fit]
CCOc1ccc(NS(=O)(=O)c2ccc(NS(=O)(=O)c3ccccc3)cc2)cc1 | inactive
CC(C)(C)OC(=O)NCCc1nnc(SCC(=O)Nc2ccc(Br)cc2)o1 | inconclusive: 7.3 µM [inhibitor, single point]
CC1(C)CCC(=O)N2CC[C@H]3C[C@H](OC(=O)Nc4ccc(Br)cc4)C[C@@H]1[C@H]32 | inconclusive: 18.3 µM [activator, single point]
C/C(=N/NC(=O)c1ccoc1C)c1ccc(NC(=O)c2ccncc2)cc1 | inconclusive: 8.2 µM [activator, partial curve]
CC1Cc2ccccc2N1C(=O)CN(C)S(=O)(=O)c1cccc2cccnc12 (stereo not drawn) | inconclusive: 23.1 µM [inhibitor, partial curve, poor fit]
O=C(O)CC(Sc1n[nH]c(=S)s1)C(=O)O (stereo not drawn) | inactive
Cc1ccc2nc(NC(=O)c3ccc(OCC4CCCO4)cc3)sc2c1 (stereo not drawn) | inconclusive: 29.1 µM [inhibitor, single point]
COC(=O)CN=Cc1c(O)n(-c2ccc(Cl)cn2)c(=O)c2ccccc12 | inconclusive: 1.16 µM [inhibitor, single point]
CN(C)S(=O)(=O)c1ccc(SCC(=O)Nc2ccc3c(c2)OCCO3)nc1 | inconclusive: 20.6 µM [activator, partial curve]
CCOC(=O)c1ccc2nc(C)c(CC)c(Cl)c2c1 | inconclusive: 29.1 µM [activator, single point]
COc1ccc(OC)c(-n2c(-c3ccc(C)cc3)n[nH]c2=S)c1 | inconclusive: 0.231 µM [inhibitor, partial curve]
CC(Oc1ccc(F)cc1)C(=O)N(CCC1=CCCCC1)c1c(N)n(Cc2ccccc2)c(=O)[nH]c1=O (stereo not drawn) | inactive
Cc1cccc(-c2nnc(NC(=O)c3ccco3)s2)c1 | inconclusive: 18.3 µM [activator, partial curve]
Cc1ccc(NC(=O)CSc2nc3[nH]ncc3c(=O)[nH]2)cc1Cl | inconclusive: 16.4 µM [activator, single point]
COC(=O)C(Cc1ccc(OC(=O)c2ccccc2Cl)cc1)N1Cc2ccccc2C1=O (stereo not drawn) | inconclusive: 18.4 µM [activator, partial curve]
O=C(Nc1ccc2c(c1)CCC2)c1cccs1 | inconclusive: 8.2 µM [activator, partial curve]

Compound | Potency
CC(=O)c1cc(-c2ccccc2)n(CC(=O)N2CCN(C3CCCC3)CC2)c1C | inconclusive: 23.1 µM [inhibitor, single point]
CC(C)=NNc1nc2c(c(=O)[nH]c(=O)n2C)n1CCc1ccccc1 | inconclusive: 20.6 µM [inhibitor, partial curve, poor fit]
O=[N+]([O-])c1ccccc1N/N=C/c1cccc(O)c1O | inconclusive: 6.51 µM [activator, partial curve]
Cc1ccc(NC(=O)N(C)c2ccccc2)cc1 | inconclusive: 29.1 µM [activator, single point]
Cc1cccc(C(=O)O/N=C2\CCCc3ccccc32)c1 | inconclusive: 13 µM [activator, single point]
COc1ccc(-n2c(C)c(C)c3c(NCCN(C)C)ncnc32)cc1 | inactive
Cc1cc(C)c(-c2csc(NC(=O)CCCc3nc4ccccc4c(=O)[nH]3)n2)c(C)c1 | active: 5.17 µM
Cc1ccc(C)c(CS(=O)(=O)c2cn(CC(=O)N3CCC(C)CC3)c3ccccc23)c1 | inconclusive: 29.1 µM [inhibitor, single point]
CCC(CC)NCc1ccc2c(c1)c1ccccc1n2CC | inconclusive: 18.3 µM [inhibitor, single point]
O=C(O)c1cccc(-n2cccc2/C=C2/NC(=O)N(Cc3ccccc3F)C2=O)c1 | inactive
N=C1SCC(=O)N1c1ncc(Cc2ccccc2Cl)s1 | inconclusive: 29.1 µM [activator, single point]
COc1ccc(-c2nnc(NC(=O)c3ccc4c(c3)OCCO4)o2)cc1 | inactive
O=C(/C=C/c1cn(-c2ccccc2)nc1-c1ccccc1)Nc1ccc(C(=O)O)cc1 | inconclusive: 20.6 µM [activator, partial curve]
COc1ccc(CCNC(=O)c2ccc3c(c2)NC(=O)C(CSCc2cc(C)ccc2C)N3)cc1OC (stereo not drawn) | inactive
N#Cc1cccc(NC(=O)COC(=O)CCc2nc3ccccc3c(=O)[nH]2)c1 | inactive
Cc1onc(-c2ccccc2)c1C(=O)N1CCOCC1 | inconclusive: 8.2 µM [activator, partial curve, poor fit]
Cc1ccccc1/C=N/n1c(-c2cc(-c3ccccc3)n[nH]2)n[nH]c1=S | inactive
O=C(c1ccc2c(=O)n3c(nc2c1)CCCCC3)N1CCN(c2ccc(Cl)cc2)CC1 | inconclusive: 29.1 µM [inhibitor, single point]
Oc1ccc2n[nH]nc2c1 | inactive
O=C(/C=C/c1cn(CC(O)CN2CCOCC2)c2ccccc12)c1cccs1 (stereo not drawn) | inactive
Cc1ccccc1N(CC(=O)N/N=C/c1cc(C)n(-c2ccccc2C)c1C)S(C)(=O)=O | inconclusive: 20.6 µM [inhibitor, partial curve, poor fit]

Among those listed so far, these contain a thiophene ring, fused or not:
Compound | Potency
O=C(Nc1ccc2c(c1)CCC2)c1cccs1 | inconclusive: 8.2 µM [activator, partial curve]
O=C(/C=C/c1cn(CC(O)CN2CCOCC2)c2ccccc12)c1cccs1 (stereo not drawn) | inactive
